In US20040121326A1 (YEDA RESEARCH AND DEVELOPMENT, published 2004):
No constants are given. Whether binding was seen depends on the method and setting. Some results given as binding are weak or reduced against the parent protein; the word gives no strength. For some of these results: Tags and fused reporters may be left off the sequences shown.

How the values were obtained:
[1] = target: T1, ErbB-1 expressed on transfected cells (32D derivative D1; CHO cells co-transfected with ErbB-4) (UniProt P00533 25-1210, limits assumed); assay: co-transfected CHO cells, 125I-NRG-4 crosslinking (BS3), precipitation of labeled monomeric and dimeric receptor species with an anti-ErbB-1 antibody
T1 construct: whole, on cells; also called Epidermal Growth Factor Receptor

[2] = target: T2, ErbB-4 expressed on transfected cells (CHO cells; 32D derivatives D4 and D24) (UniProt Q15303 26-1308, limits assumed); assay: displacement of radiolabeled NRG-1β from CHO cells expressing ErbB-4
T2 construct: whole, on cells; also called surface-expressed ErbB-4

[3] = target: T2, ErbB-4 expressed on transfected cells …; assay: 125I-ligand (100 ng/ml) on transfected CHO cells, BS3 crosslinking, immunoprecipitation of ErbB proteins, autoradiography; signal weaker than with NRG-1
[4] = target: T2, ErbB-4 expressed on transfected cells …; assay: summary of the crosslinking and displacement assays
[5] = target: T3, IgB-4, recombinant soluble extracellular domain of ErbB-4 fused to the Fc portion of human immunoglobulin G (human) (UniProt Q15303); assay: 125I-ligand incubated with soluble IgB, BS3 covalent crosslinking, protein-A precipitation, autoradiography
T3 sequence (looked up): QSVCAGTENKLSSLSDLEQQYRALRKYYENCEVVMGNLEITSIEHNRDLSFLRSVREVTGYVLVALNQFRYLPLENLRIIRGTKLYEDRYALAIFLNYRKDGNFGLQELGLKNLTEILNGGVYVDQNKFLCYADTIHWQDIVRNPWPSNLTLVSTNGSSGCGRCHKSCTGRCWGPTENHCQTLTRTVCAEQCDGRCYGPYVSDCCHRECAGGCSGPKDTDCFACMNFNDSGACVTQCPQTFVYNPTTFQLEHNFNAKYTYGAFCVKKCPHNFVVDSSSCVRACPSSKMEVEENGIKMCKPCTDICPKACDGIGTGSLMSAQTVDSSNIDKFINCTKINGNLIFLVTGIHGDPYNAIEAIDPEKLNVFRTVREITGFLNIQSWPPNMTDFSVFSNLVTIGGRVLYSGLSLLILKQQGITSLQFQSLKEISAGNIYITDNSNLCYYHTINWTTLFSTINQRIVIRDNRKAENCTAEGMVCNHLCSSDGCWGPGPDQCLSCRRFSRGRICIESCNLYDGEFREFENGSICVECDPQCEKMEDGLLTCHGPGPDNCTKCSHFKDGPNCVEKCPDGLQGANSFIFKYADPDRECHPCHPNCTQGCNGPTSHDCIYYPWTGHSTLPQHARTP

[6] = target: T2, ErbB-4 expressed on transfected cells …; assay: in vitro studies with engineered cell lines expressing all four ErbB proteins (FIGS. 3 to 5)
[7] = target: T3, IgB-4, recombinant soluble extracellular domain of ErbB-4 fused to the Fc portion of human immunoglobulin G (human); assay: covalent crosslinking of 125I-NRG-4 to IgB-4 with a 100-fold molar excess of unlabeled NRG-4

Measured: binding

ErbB-4 expressed on transfected cells (CHO cells; 32D derivatives D4 and D24) (from UniProt Q15303 26-1308) (receptor)
binds: [1]

DHEQPCGPRHRSFCLNGGICYVIPTIPSPFCRCIENYTGARCEEVFL (ligand) [synthetic refolded mouse EGF-like domain of NRG-4 (residues 4 to 50, SEQ ID NO:2)]
not listed: [1]
binds: all other assays above
